These are yes or no findings as the source states them, for the method shown. Some binding calls cover weakened binding; strength is not graded here.
Assays:
[1] = molecular target: T1, human ROR2 ECD-Fc fusion protein (human, UniProt Q01974 34-403); assay: summary of the phage clone screening (ELISA)
T1 construct: Panning and phage ELISA antigen; also called human ROR2-ECD (phage ELISA); not shown: Fc part and any linker are not described

Amino acid sequences for entries named in this document (tags omitted). A change or cut given only in a name is not applied to a line headed by its entry.
UniProt Q01974: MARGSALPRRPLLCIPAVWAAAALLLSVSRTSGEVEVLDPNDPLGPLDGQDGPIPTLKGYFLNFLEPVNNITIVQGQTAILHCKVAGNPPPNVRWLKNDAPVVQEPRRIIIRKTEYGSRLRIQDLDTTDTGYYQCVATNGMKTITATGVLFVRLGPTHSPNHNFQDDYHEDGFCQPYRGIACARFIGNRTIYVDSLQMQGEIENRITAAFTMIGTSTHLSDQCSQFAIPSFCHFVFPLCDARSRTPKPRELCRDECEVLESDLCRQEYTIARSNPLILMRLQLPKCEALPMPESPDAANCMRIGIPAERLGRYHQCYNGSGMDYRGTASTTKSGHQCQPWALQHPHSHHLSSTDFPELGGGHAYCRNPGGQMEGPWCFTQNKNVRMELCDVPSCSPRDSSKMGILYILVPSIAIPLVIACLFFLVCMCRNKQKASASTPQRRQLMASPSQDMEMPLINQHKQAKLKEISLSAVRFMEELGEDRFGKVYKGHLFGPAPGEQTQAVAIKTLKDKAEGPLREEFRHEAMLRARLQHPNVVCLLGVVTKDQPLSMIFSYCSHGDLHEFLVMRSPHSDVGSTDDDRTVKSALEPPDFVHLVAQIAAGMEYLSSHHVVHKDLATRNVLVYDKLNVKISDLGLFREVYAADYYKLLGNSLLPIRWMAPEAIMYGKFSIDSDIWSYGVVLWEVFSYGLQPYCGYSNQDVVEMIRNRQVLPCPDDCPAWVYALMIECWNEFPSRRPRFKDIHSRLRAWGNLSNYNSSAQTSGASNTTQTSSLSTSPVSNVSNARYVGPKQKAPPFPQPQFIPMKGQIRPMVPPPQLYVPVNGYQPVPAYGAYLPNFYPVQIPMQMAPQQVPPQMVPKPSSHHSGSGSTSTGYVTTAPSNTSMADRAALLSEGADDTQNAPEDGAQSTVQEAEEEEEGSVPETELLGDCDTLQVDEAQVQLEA

[2] = molecular target: T1, human ROR2 ECD-Fc fusion protein; assay: phage ELISA on coated ROR2 ECD-Fc
[3] = molecular target: human ROR2 extracellular domain (ROR2 ECD recombinant protein) (human) (UniProt Q01974); assay: ELISA, 20 ng coated ROR2 ECD, anti-human Fc-HRP
[4] = molecular target: human ROR2 extracellular domain (ROR2 ECD recombinant protein) (human) (UniProt Q01974); assay: kinetic binding analysis
[5] = molecular target: human ROR2 extracellular domain (ROR2 ECD recombinant protein) (human) (UniProt Q01974); assay: ELISA, 20 ng coated ROR2 ECD, anti-human Fc-HRP (FIG. 13)

B1: ROR2 clone #240 scFv phage antibody (scFv, V domains shown)
VH: QITLKESGPELVKPTQTLTLTCTFSGFSLSTSGMSVSWIRQPPGKALEWLARIDWDDDKYYSTSLKTRLTISKDTSKNQVVLTMTNTDPVDTATYYCARGFYLAYGSYDSWGQGTLVTVSS
VL: QSALTQPASVSGSPGQSITISCTGTSGDVGGYNYVSWYQHHPGKAPKLIIYDVNKRPSGFSDRFSGSKSGNTASLTISGLQAEDEADYYCSSYTSTSTVFGGGTKLTVLG
binding [1]: binds | binding [2]: binds

B2: ROR2-240 full length human IgG1 antibody (antibody, V domains shown)
VH: B1 VH
VL: B1 VL
notes: also called clone #240 IgG1
binding [3]: binds | binding [4]: binds | binding [5]: binds

Source: patent publication US20180127503A1 (EUREKA THERAPEUTICS, published 2018)
